Among all 360,000 compounds or so, about 7,500 (2.1%) were called active. Inconclusive results, whose numbers are uncertain, are shown with a selection of clear calls. Calls come from the whole dose curve; as a rule, active = well fitted inhibition curve with a large enough effect; inconclusive = small, poorly fitted or top-dose-only effect, or effect the other way; inactive = flat fitted curve, though single readings scatter. Where the call is inconclusive, the potency comes from a doubtful curve fit.
experiment: Nrf2 qHTS screen for inhibitors; settings: A549 ARE-Fluc reporter, luciferase luminescence, 18-24 h; series mostly up to 46 µM; note: nearly all actives have a fitted effect of over 60% in size
In short: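 Cells were seeded and rested 2 h, then exposed to compounds for 18-24 h. CellTiter-Fluor was read first as a viability measure. BugLite was added 15 min before the final luminescent read of ARE-luciferase activity in A549 cells.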
Potency is the fitted concentration of half-maximal effect.

SMILES	Potency
CN(C)CCN(C(=O)C1=COCCO1)c1nc2ccc(Cl)cc2s1	inconclusive: 29.1 µM [activator, single point]
CCOc1ccc(S(=O)(=O)N2CCC(C(=O)Nc3ccc(C)c(S(=O)(=O)N4CCOCC4)c3)CC2)cc1	inconclusive: 25.9 µM [falling, single point]
CCOc1ccc(/C=C/C(O)=C2/C(=O)N(C)C3(C)CC2c2ccccc2O3)cc1OC (centres undefined)	inconclusive: 29.1 µM [falling, single point]
Cc1cc(NC(=S)Nc2cccnc2)ccc1Br	inactive
O=C(Nc1ccccc1)c1ccc(CSc2ccccn2)cc1	inconclusive: 1.16 µM [activator, partial curve, poor fit]
O=C(c1cccc(N2C(=O)C3C4C=CC(C4)C3C2=O)c1)N1CCN(c2ccccc2)CC1 (centres undefined)	inconclusive: 18.4 µM [falling, partial curve, poor fit]
O=C1c2ccccc2C(=O)N1CCCCSc1nc2ccccc2c(=O)n1CCCN1CCOCC1	inactive
Cc1ccccc1CN1c2ccccc2-c2nc(SCC(=O)c3ccc(Cl)cc3)ncc2S1(=O)=O	inconclusive: 11.6 µM [activator, partial curve, poor fit]
CC(C)c1ccccc1-n1c(-c2cccnc2)n[nH]c1=S	inconclusive: 29.1 µM [falling, partial curve, poor fit]
Cc1cc(C(=O)CN2C(=O)c3ccccc3S2(=O)=O)c(C)n1-c1ccccc1	inconclusive: 29.1 µM [falling, single point]
Cc1ccc(C)c(NC(=S)Nc2cccnc2)c1	inactive
O=C(CN1CCN(C(=O)N2CCOCC2)CC1)Nc1ccc(Br)cc1	inactive
O=C(COc1ccc(Cl)cc1Cl)Nc1ccccc1NS(=O)(=O)c1cccs1	inconclusive: 29.1 µM [activator, single point]
CCOc1ccc(C(=O)Nc2ccc3oc(-c4cccc5ccccc45)nc3c2)cc1	inconclusive: 11.6 µM [falling, partial curve, poor fit]
CC(=O)Cc1nsc(NC(=O)c2ccc(-c3cccc(C(F)(F)F)c3)o2)n1	inactive
Cc1ccc(-n2c(-c3ccccc3)c[nH]c2=S)cc1	inconclusive: 29.1 µM [falling, single point]
CCC(C)NC(=O)Nc1ccc(Br)cc1Cl (centres undefined)	inconclusive: 10.3 µM [falling, partial curve]
Cc1c(-c2ccc(Cl)cc2)oc(=O)c2c(N)n(-c3ccccc3)nc12	inconclusive: 29.1 µM [falling, single point]
Cc1ccc(C(=O)c2cn(CC(=O)NCc3ccccc3)c3nc(C)ccc3c2=O)cc1	inconclusive: 8.2 µM [activator, partial curve]
Cc1ccc2ccc(S(=O)(=O)NCc3ccccn3)cc2c1	inconclusive: 10.3 µM [activator, partial curve]
CCN(CC)CCC(c1ccc(N(C)C)cc1)c1c(OC)cc(OC)c2ccc(=O)oc12 (centres undefined)	inactive
O=C(Nc1nc(-c2ccc(Cl)cc2)cs1)C1CCCO1 (centres undefined)	inactive

SMILES	Potency
Cc1ccc(O)c(Nc2nc3ccccc3c3nncn23)c1	inactive
CC(C)(C)NC(=O)CCN(/N=C/c1ccc([N+](=O)[O-])o1)C1=NS(=O)(=O)c2ccccc21	inconclusive: 25.9 µM [activator, single point]
Cc1ccc(NC(=O)CSc2nc3c(cc2C#N)C(=O)CCC3)cc1S(=O)(=O)N(C)C	inconclusive: 23.1 µM [falling, single point]
COc1ccc2c(c1)-c1ccccc1S(=O)(=O)N2C	inconclusive: 18.4 µM [falling, partial curve, poor fit]
Cc1ccc(N2C(=O)c3ccccc3NC2(C(=O)O)c2ccccc2)cc1Cl (centres undefined)	inconclusive: 7.31 µM [activator, partial curve]
COc1cccc(NC(=O)CCNS(=O)(=O)c2cccc3nonc23)c1	inconclusive: 8.2 µM [falling, single point]
COC(=O)c1ccccc1NC(=O)C(=O)NCc1ccncc1	inconclusive: 4.61 µM [activator, full curve]
CC(C)c1nnc(NC(=O)c2cnccn2)s1	inconclusive: 16.4 µM [activator, partial curve, poor fit]
CCC(=O)Nc1ccc(-c2nc3ccccc3c(=O)o2)cc1	inconclusive: 14.6 µM [falling, partial curve, poor fit]
O=C(Nc1c(C(=O)c2ccccc2)oc2ccccc12)c1ccc(F)cc1	inconclusive: 0.461 µM [falling, full curve, poor fit]
Cc1ccc2c(c1)C(c1ccc(O)cc1)(c1ccc(O)cc1)C(=O)N2C	inconclusive: 6.51 µM [falling, single point]
O=c1c2c(-c3ccco3)csc2nc(SCc2cn3cccnc3n2)n1-c1ccccc1	inconclusive: 29.1 µM [falling, single point]
CCc1cc(C(=O)Nc2ncccc2O)sc1C	inconclusive: 18.4 µM [activator, partial curve]
Cc1ccc(NC(=O)CSc2nc(N)c3c4c(sc3n2)CSC(C)(C)C4)cc1	inconclusive: 18.4 µM [falling, single point]
COC(=O)c1cc(S(=O)(=O)N2CCN(c3cc(Cl)ccc3C)CC2)c[nH]1	inconclusive: 29.1 µM [activator, single point]
Nc1ccc2ccccc2c1N=Nc1ccccc1	inconclusive: 10.3 µM [activator, partial curve, poor fit]
Cc1ccc(CNC(=O)Cn2cc3c(n2)-c2c(oc(C(=O)N4CCOCC4)c2C)CC3)cc1	inconclusive: 23.1 µM [falling, single point]
O=C(NCCc1ccccc1)c1cccs1	inconclusive: 2.06 µM [activator, partial curve]
COc1cccc2cc(C(=O)NCc3ccc(C)cc3)c(=N)oc12	inconclusive: 25.9 µM [falling, single point]
CCCn1nc(C(=O)NC2CCCc3ccccc32)c2ccccc2c1=O (centres undefined)	inconclusive: 23.1 µM [falling, single point]
Cc1cccc(N2CC(C(=O)Nc3ccc(S(=O)(=O)N4CCOCC4)cc3)CC2=O)c1 (centres undefined)	inconclusive: 2.31 µM [activator, partial curve, poor fit]
O=C(Nc1cccc(S(=O)(=O)C(F)F)c1)c1ccc(S(=O)(=O)N2CCCCC2)cc1	active: 16.4 µM

2 of these compounds, reformatted.
Cc1ccc(NC(=O)CSc2nc(N)c3c4c(sc3n2)CSC(C)(C)C4)cc1
  Potency: inconclusive: 18.4 µM [falling, single point]
COC(=O)c1cc(S(=O)(=O)N2CCN(c3cc(Cl)ccc3C)CC2)c[nH]1
  Potency: inconclusive: 29.1 µM [activator, single point]

Next part:

SMILES	Potency
COc1ccc(-c2ccc(-c3nc4ccc(C)cn4c3NC3CCCCC3)cc2OC)cc1	inconclusive: 29.1 µM [falling, single point]
Cc1ccc(CN(c2ccc(C(=O)Nc3cccnc3)cc2)S(C)(=O)=O)cc1	inconclusive: 7.31 µM [falling, partial curve]
COc1cc2c(=O)c(C(=O)c3ccc(F)cc3)cn(Cc3cccc(F)c3)c2cc1OC	inconclusive: 29.1 µM [falling, single point]
O=C(N/N=C/c1cccnc1)c1cccc(N2CCCC2=O)c1	inconclusive: 9.2 µM [activator, partial curve, poor fit]
N#Cc1c(NCc2ccccc2)ccnc1NCc1cccnc1	active: 6.51 µM
CNc1nc(N)c([N+](=O)[O-])c(NCc2ccccc2)n1	inconclusive: 16.4 µM [activator, single point]
Cc1cccc(-c2nc3ccccc3c(=O)n2NC(=O)c2ccc([N+](=O)[O-])c(C)c2)c1	inconclusive: 18.4 µM [falling, partial curve]
COC(=O)c1ccc(C)c(NC(=O)Cc2coc3cc(OC)ccc23)c1	inconclusive: 18.4 µM [falling, partial curve, poor fit]
COc1ccc(NC(=O)c2cccc(S(=O)(=O)N3CCN(c4ccccc4)CC3)c2)c(OC)c1	inconclusive: 18.4 µM [falling, partial curve]
Cc1occc1-c1nnc(SCC(=O)NC2CCCC2)n1-c1ccccc1	inconclusive: 16.4 µM [activator, partial curve, poor fit]
O=C(Nc1ccc(Br)cn1)c1ccc(Cl)s1	inconclusive: 18.4 µM [activator, partial curve]
O=C(NC1CCCC1)c1ccc(CS(=O)(=O)c2cccc(C(F)(F)F)c2)o1	inactive
O=C(NC1CCCCC1)C(c1cccnc1)N(C(=O)CCl)c1ccc(F)cc1 (centres undefined)	active: 18.4 µM
CN(CC(=O)Nc1ccc(S(=O)(=O)N2CCCC2)cc1)Cc1ccc(Cl)cc1Cl	inconclusive: 29.1 µM [falling, single point]
Cc1cccc(N=C/C(C(=O)C(F)(F)F)=C(\O)c2ccco2)c1	inconclusive: 1.64 µM [activator, full curve, poor fit]
Fc1ccc(CNC(=S)Nc2ccc(OC(F)F)cc2)cc1	inconclusive: 16.4 µM [falling, single point]
O=S(=O)(c1ccc(Cl)s1)N1CCC(Cc2ccccc2)CC1	inconclusive: 0.146 µM [falling, full curve, poor fit]
Cn1nc(-c2ccccc2F)c2cc(C(=O)N3CCN(C(=O)c4ccco4)CC3)sc21	inconclusive: 14.6 µM [falling, partial curve]
CN(C)CCN(C(=O)C1=COCCO1)c1nc2ccc(F)cc2s1	inconclusive: 1.64 µM [activator, full curve]
CC(=O)c1ccc(NC(=O)CSc2nc(=O)n(CCN3CCOCC3)c3c2CCC3)cc1	inactive

Another view of three compounds above.
Cc1ccc(CN(c2ccc(C(=O)Nc3cccnc3)cc2)S(C)(=O)=O)cc1
  Potency: inconclusive: 7.31 µM [falling, partial curve]
CNc1nc(N)c([N+](=O)[O-])c(NCc2ccccc2)n1
  Potency: inconclusive: 16.4 µM [activator, single point]
CN(CC(=O)Nc1ccc(S(=O)(=O)N2CCCC2)cc1)Cc1ccc(Cl)cc1Cl
  Potency: inconclusive: 29.1 µM [falling, single point]
